These are yes or no findings as the source states them, for the method shown. For some of these results: A result given as binding can be weak or reduced; the word gives no strength. For some of these results: Tags and fused reporters may be left off the sequences shown. For some of these results: In cells and extracts the contact can be indirect.

By UniProt entry, the sequences of proteins in these tests, tags left out. Where a name states a change or a piece, a line headed by the entry shows the natural chain unless it says otherwise.
UniProt Q9VYB1: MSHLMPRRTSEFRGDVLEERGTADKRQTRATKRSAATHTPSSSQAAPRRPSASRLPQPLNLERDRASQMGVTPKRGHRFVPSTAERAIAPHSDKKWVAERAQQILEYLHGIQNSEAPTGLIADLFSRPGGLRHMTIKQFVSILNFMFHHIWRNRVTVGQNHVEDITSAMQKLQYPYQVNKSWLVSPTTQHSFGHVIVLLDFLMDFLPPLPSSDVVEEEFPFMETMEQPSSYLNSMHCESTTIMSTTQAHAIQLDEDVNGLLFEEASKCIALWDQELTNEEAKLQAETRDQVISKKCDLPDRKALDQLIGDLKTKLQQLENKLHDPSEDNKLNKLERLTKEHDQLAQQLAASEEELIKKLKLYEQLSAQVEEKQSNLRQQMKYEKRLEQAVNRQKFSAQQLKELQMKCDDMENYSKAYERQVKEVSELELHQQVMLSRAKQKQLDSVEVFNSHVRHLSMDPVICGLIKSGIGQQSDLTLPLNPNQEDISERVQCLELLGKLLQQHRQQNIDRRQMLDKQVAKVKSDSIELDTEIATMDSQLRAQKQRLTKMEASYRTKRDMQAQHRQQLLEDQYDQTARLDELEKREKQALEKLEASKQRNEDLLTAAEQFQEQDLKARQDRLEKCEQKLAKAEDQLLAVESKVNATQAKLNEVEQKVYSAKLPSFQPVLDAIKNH
UniProt Q9VU15: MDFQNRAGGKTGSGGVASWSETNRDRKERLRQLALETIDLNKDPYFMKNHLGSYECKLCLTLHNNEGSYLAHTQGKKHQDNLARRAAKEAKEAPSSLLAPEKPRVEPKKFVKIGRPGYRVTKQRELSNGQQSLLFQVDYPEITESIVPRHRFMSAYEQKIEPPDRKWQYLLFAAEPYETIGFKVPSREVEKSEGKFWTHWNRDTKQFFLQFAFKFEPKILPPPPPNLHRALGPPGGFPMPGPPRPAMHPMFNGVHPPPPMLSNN

For experiment [1], the target named is T1, GST-Mitch (Drosophila (D. melanogaster)) (UniProt Q9V3V7).
T1 sequence: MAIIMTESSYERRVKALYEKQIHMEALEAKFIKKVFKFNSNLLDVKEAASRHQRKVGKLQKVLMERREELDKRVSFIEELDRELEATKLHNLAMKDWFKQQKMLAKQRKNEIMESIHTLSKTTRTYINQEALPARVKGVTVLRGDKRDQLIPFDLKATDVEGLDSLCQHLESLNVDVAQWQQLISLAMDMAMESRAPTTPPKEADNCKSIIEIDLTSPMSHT
Briefly: pull-down; lysates from S2 cells expressing HA-tagged SFs incubated at 4°C for 2 hr with GST-fusion proteins or GST alone; Western blotting with anti-HA; only the target purified.

For experiment [2], the target named is T2, GST-Ver (Drosophila (D. melanogaster)) (UniProt Q9VTZ2).
T2 sequence: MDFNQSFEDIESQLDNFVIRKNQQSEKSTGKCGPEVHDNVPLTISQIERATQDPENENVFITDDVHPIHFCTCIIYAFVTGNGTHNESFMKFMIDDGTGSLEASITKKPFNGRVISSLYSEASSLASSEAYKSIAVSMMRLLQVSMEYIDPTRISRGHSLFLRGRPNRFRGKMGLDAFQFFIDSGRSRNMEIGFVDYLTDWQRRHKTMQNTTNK
Briefly: pull-down; bacterially expressed purified proteins; GST-Mitch (60 nM), GST-Nuf2 (50 nM), GST-Ndc80 (40 nM) or GST (200 nM) on glutathione beads incubated at 4°C for 2 hr with 6His-Sf3A2 (20 nM) or 6His-Prp31 (20 nM) in NETN buffer (20 mM Tris-HCl, pH 8, 100 mM NaCl, 1 mM EDTA, 0.5% NP-40); both purified.

In experiment [3] the target is T3, GST-HOAP (Drosophila (D. melanogaster)) (UniProt Q95RV2).
T3 sequence: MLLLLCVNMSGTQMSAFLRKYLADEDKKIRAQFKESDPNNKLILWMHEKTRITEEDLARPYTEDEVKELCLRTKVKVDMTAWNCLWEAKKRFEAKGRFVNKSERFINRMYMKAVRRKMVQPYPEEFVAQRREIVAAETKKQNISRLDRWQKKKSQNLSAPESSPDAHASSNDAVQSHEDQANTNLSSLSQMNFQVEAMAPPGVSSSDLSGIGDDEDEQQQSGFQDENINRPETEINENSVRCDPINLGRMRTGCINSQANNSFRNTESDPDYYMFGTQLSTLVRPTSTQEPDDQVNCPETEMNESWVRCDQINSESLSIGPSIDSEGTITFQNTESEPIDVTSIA
The experiment is described as above.

In experiment [4] the target is T1, GST-Mitch (Drosophila (D. melanogaster)). The description is as above.
Experiment [5] addresses GST-Ndc80 (Drosophila (D. melanogaster)) (UniProt Q9VYB1). The experiment is described as above.
The target of experiment [6] is T4, Prp31 (endogenous, S2 cells) (D. melanogaster (endogenous in S2)) (UniProt Q9VUM1).
T4 sequence: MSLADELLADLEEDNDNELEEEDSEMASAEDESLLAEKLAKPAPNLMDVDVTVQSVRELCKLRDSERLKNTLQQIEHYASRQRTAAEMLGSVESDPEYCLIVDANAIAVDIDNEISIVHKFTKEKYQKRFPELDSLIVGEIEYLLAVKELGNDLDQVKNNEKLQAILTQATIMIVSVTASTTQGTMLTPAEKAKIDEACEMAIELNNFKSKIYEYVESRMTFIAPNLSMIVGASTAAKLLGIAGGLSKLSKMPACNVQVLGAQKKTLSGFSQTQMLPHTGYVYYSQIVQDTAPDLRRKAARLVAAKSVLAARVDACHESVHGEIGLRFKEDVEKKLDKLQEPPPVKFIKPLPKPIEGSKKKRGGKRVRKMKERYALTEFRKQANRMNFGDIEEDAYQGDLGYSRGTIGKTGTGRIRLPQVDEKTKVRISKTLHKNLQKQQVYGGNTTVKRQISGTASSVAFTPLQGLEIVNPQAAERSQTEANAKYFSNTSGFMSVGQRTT
Briefly: co-IP; S2 cell extracts (lysis buffer with 1% Triton X-100) incubated for 3 hr at 25°C with protein G sepharose beads conjugated to antibodies; endogenous proteins, detected by Western blotting. For orientation: In western blotting, separated proteins are transferred to a membrane and probed.

Experiment [7] deals with Sf3A2 (endogenous, S2 cells) (D. melanogaster (endogenous in S2)) (UniProt Q9VU15). The experiment is described as above.
For experiment [8], the target named is Ndc80 (endogenous, S2 cells) (D. melanogaster (endogenous in S2)) (UniProt Q9VYB1). The experiment is described as above.
Experiment [9] addresses GST-Nuf2 (Drosophila (D. melanogaster)). Briefly: pull-down; bacterially expressed purified proteins; GST-Mitch (60 nM), GST-Nuf2 (50 nM), GST-Ndc80 (40 nM) or GST (200 nM) on glutathione beads incubated at 4°C for 2 hr with 6His-Sf3A2 (20 nM) or 6His-Prp31 (20 nM) in NETN buffer (20 mM Tris-HCl, pH 8, 100 mM NaCl, 1 mM EDTA, 0.5% NP-40); both purified.
Experiment [10] shares this target. Briefly: pull-down; lysates from S2 cells expressing HA-tagged SFs incubated at 4°C for 2 hr with GST-fusion proteins or GST alone; Western blotting with anti-HA; only the target purified.
The target in experiment [11] is GST-Ndc80 (Drosophila (D. melanogaster)) (UniProt Q9VYB1). The description is as above.
For experiment [12], the target named is Nuf2 (endogenous, S2 cells) (D. melanogaster (endogenous in S2)). The experiment in a line: co-IP; S2 cell extracts (lysis buffer with 1% Triton X-100) incubated for 3 hr at 25°C with protein G sepharose beads conjugated to antibodies; endogenous proteins, detected by Western blotting.

With “3HA-Sf3A2 (Drosophila (D. melanogaster))”, the binding entry in [1] was “binds”.

For 6His-Sf3A2 (from UniProt Q9VU15), the binding result was “no binding” in [2], “no binding” in [3], “binds” in [4] and “binds” in experiment [5].

Regarding “Ndc80 (endogenous, S2 cells) (from UniProt Q9VYB1)”, the binding result in experiment [6] and in [7] was “binds” throughout.

“Sf3A2 (endogenous, S2 cells) (from UniProt Q9VU15)”: the binding entry in [8] and in experiment [6] was “binds” in each case.

B1: 6His-Prp31 (protein, UniProt Q9VUM1 1-501)
chain: MSLADELLADLEEDNDNELEEEDSEMASAEDESLLAEKLAKPAPNLMDVDVTVQSVRELCKLRDSERLKNTLQQIEHYASRQRTAAEMLGSVESDPEYCLIVDANAIAVDIDNEISIVHKFTKEKYQKRFPELDSLIVGEIEYLLAVKELGNDLDQVKNNEKLQAILTQATIMIVSVTASTTQGTMLTPAEKAKIDEACEMAIELNNFKSKIYEYVESRMTFIAPNLSMIVGASTAAKLLGIAGGLSKLSKMPACNVQVLGAQKKTLSGFSQTQMLPHTGYVYYSQIVQDTAPDLRRKAARLVAAKSVLAARVDACHESVHGEIGLRFKEDVEKKLDKLQEPPPVKFIKPLPKPIEGSKKKRGGKRVRKMKERYALTEFRKQANRMNFGDIEEDAYQGDLGYSRGTIGKTGTGRIRLPQVDEKTKVRISKTLHKNLQKQQVYGGNTTVKRQISGTASSVAFTPLQGLEIVNPQAAERSQTEANAKYFSNTSGFMSVGQRTT
On to B1, for which the binding entry in [9] and in [5] was “binds” throughout.

B2: 3HA-Prp31 (protein, UniProt Q9VUM1 1-501)
chain: MSLADELLADLEEDNDNELEEEDSEMASAEDESLLAEKLAKPAPNLMDVDVTVQSVRELCKLRDSERLKNTLQQIEHYASRQRTAAEMLGSVESDPEYCLIVDANAIAVDIDNEISIVHKFTKEKYQKRFPELDSLIVGEIEYLLAVKELGNDLDQVKNNEKLQAILTQATIMIVSVTASTTQGTMLTPAEKAKIDEACEMAIELNNFKSKIYEYVESRMTFIAPNLSMIVGASTAAKLLGIAGGLSKLSKMPACNVQVLGAQKKTLSGFSQTQMLPHTGYVYYSQIVQDTAPDLRRKAARLVAAKSVLAARVDACHESVHGEIGLRFKEDVEKKLDKLQEPPPVKFIKPLPKPIEGSKKKRGGKRVRKMKERYALTEFRKQANRMNFGDIEEDAYQGDLGYSRGTIGKTGTGRIRLPQVDEKTKVRISKTLHKNLQKQQVYGGNTTVKRQISGTASSVAFTPLQGLEIVNPQAAERSQTEANAKYFSNTSGFMSVGQRTT
Take B2: the binding result in experiment [10] and in [11] was “binds” in each case.

B3: Prp31 (endogenous, S2 cells) (protein, UniProt Q9VUM1 1-501)
chain: MSLADELLADLEEDNDNELEEEDSEMASAEDESLLAEKLAKPAPNLMDVDVTVQSVRELCKLRDSERLKNTLQQIEHYASRQRTAAEMLGSVESDPEYCLIVDANAIAVDIDNEISIVHKFTKEKYQKRFPELDSLIVGEIEYLLAVKELGNDLDQVKNNEKLQAILTQATIMIVSVTASTTQGTMLTPAEKAKIDEACEMAIELNNFKSKIYEYVESRMTFIAPNLSMIVGASTAAKLLGIAGGLSKLSKMPACNVQVLGAQKKTLSGFSQTQMLPHTGYVYYSQIVQDTAPDLRRKAARLVAAKSVLAARVDACHESVHGEIGLRFKEDVEKKLDKLQEPPPVKFIKPLPKPIEGSKKKRGGKRVRKMKERYALTEFRKQANRMNFGDIEEDAYQGDLGYSRGTIGKTGTGRIRLPQVDEKTKVRISKTLHKNLQKQQVYGGNTTVKRQISGTASSVAFTPLQGLEIVNPQAAERSQTEANAKYFSNTSGFMSVGQRTT
For B3, the binding entry in [12], in experiment [8] and in experiment [7] was “binds” in each case.

The values are drawn from PMC6287947.
